# Data published in the supplement of paper PMC11006884.
# What follows is the remainder of the data, with few or none of the targets with a hit. Single values of this set are uncertain. The list shows a part of the results, in another mix than the full data.
# Compound: COC(=O)/C=C/c1ccccc1 [methyl cinnamate]
# Assay: log2 ratio of iodoacetamide-alkyne labeling of the cysteine site, DMSO over compound (competition); higher = stronger covalent engagement of the cysteine by the compound, active = 1 or more
# Conditions: 500 µM; treatment time 1 h; system: HEK293T cell lysate
# Summary of the method: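 HEK293T lysate at 2 mg/mL was treated with vehicle or electrophile (500 µM) for 1 h at ambient temperature, then labelled with iodoacetamide alkyne (1 h), clicked to sCIP-TMT reagents, pooled, digested with trypsin overnight at 37 °C, enriched on streptavidin and eluted with acid. Peptides were analysed by Orbitrap Eclipse LC-MS/MS with FAIMS and quantified in FragPipe, using duplicate channels and three replicates, with cysteines quantified in only one replicate excluded. The log2 competition ratio for each cysteine is the mean control-channel reporter intensity divided by the mean compound-channel reporter intensity.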
row,Target,log2 ratio of iodoacetamide-alkyne labeling
1,RPL3 C336 (UniProt P39023),inactive: 0.177
2,HSPA4 C417 (UniProt P34932),inactive: 0.281
3,TMPO C561 (UniProt P42166),inactive: 0.0482
4,HSPA4 C38 (UniProt P34932),inactive: 0.0942
5,EPS15 C657 (UniProt P42566),inactive: 0.19
6,KIF5B C421 (UniProt P33176),inactive: 0.205
7,ADD1 C253 (UniProt P35611),inactive: -0.0653
8,GTF2H1 C506 (UniProt P32780),inactive: 0.345
9,PDIA3 C244 (UniProt P30101),inactive: 0.0791
10,PSMC2 C389 (UniProt P35998),inactive: 0.00853
11,SDHA C311 (UniProt P31040),inactive: 0.0756
12,UniProt P36954_C52,inactive: 0.0654
13,IARS C433 (UniProt P41252),inactive: -0.158
14,NCAPD3 C330 (UniProt P42695),inactive: 0.254
15,ATIC C575 (UniProt P31939),inactive: 0.154
16,MCM4 C162 (UniProt P33991),inactive: 0.112
17,UniProt P36507_C384,inactive: 0.24
18,TXLNA C87 (UniProt P40222),inactive: 0.217
19,RPL3 C114 (UniProt P39023),inactive: 0.119

# Quoted from the listing:
# Entry of SDHA C311 (UniProt P31040) under log2 ratio of iodoacetamide-alkyne labeling: inactive: 0.0756
# Entry of NCAPD3 C330 (UniProt P42695) under log2 ratio of iodoacetamide-alkyne labeling: inactive: 0.254
# Entry of TXLNA C87 (UniProt P40222) under log2 ratio of iodoacetamide-alkyne labeling: inactive: 0.217

# More records.

row,Target,log2 ratio of iodoacetamide-alkyne labeling
1,PEBP1 C168 (UniProt P30086),inactive: 0.0977
2,RFC3 C32 (UniProt P40938),inactive: 0.106
3,MATR3 C563 (UniProt P43243),inactive: 0.199
4,TTK C229 (UniProt P33981),inactive: 0.399
5,POLR2B C984 (UniProt P30876),inactive: -0.0202
6,TMPO C330 (UniProt P42166),inactive: 0.0479
7,DNAJA1 C149 (UniProt P31689),inactive: 0.224
8,FUS C433 (UniProt P35637),inactive: 0.0575
9,PPP2R1A C294 (UniProt P30153),inactive: 0.0156
10,TMPO C629 (UniProt P42166),inactive: -0.0542
11,HSPA4 C290 (UniProt P34932),inactive: 0.0552
12,MPI C289 (UniProt P34949),inactive: 0.299
13,CDC25C C42 (UniProt P30307),inactive: 0.326
14,HADHA C322 (UniProt P40939),inactive: 0.0875
15,UniProt P42126_C173,inactive: -0.0225
16,LRPPRC C130 (UniProt P42704),inactive: 0.284
17,ACAA2 C128 (UniProt P42765),inactive: 0.405
18,IARS C120 (UniProt P41252),inactive: -0.00413
